These are yes or no findings as the source states them, for the method shown. Binding seen in cells or lysates may run through a third protein. Sequences can lack the tags named with a protein.
Biological target: CD28 costimulatory receptor (human (endogenous in Jurkat)) (UniProt P10747)
Assay: co-IP; anti-CD28 immunoprecipitation from lysates of Jurkat E6.1 T cells transfected with Xpress-tagged PKCθ vectors, stimulated for 5 min with anti-CD3 plus anti-CD28 mAbs; immunoblot

By UniProt entry, the sequences of proteins in these tests, tags left out. Residues count along the entry.
UniProt P10747, residues 19-220: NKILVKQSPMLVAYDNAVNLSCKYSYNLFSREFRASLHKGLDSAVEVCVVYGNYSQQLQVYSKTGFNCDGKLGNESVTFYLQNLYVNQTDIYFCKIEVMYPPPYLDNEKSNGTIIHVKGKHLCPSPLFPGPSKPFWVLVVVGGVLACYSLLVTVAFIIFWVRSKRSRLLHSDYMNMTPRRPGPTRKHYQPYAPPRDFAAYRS

B1: Xpress-tagged PKCθ T/A (A335P) (enzyme, UniProt Q04759 1-706)
chain: MSPFLRIGLSNFDCGSCQSCQGEAVNPYCAVLVKEYVESENGQMYIQKKPTMYPPWDSTFDAHINKGRVMQIIVKGKNVDLISETTVELYSLAERCRKNNGKTEIWLELKPQGRMLMNARYFLEMSDTKDMNEFETEGFFALHQRRGAIKQAKVHHVKCHEFTATFFPQPTFCSVCHEFVWGLNKQGYQCRQCNAAIHKKCIDKVIAKCTGSAINSRETMFHKERFKIDMPHRFKVYNYKSPTFCEHCGTLLWGLARQGLKCDACGMNVHHRCQTKVANLCGINQKLMAEALAMIESTQQARCLRDTEQIFREGPVEIGLPCSIKNEARPPCLPAPGKREPQGISWESPLDEVDKMCHLPEPELNKERPSLQIKLKIEDFILHKMLGKGSFGKVFLAEFKKTNQFFAIKALKKDVVLMDDDVECTMVEKRVLSLAWEHPFLTHMFCTFQTKENLFFVMEYLNGGDLMYHIQSCHKFDLSRATFYAAEIILGLQFLHSKGIVYRDLKLDNILLDKDGHIKIADFGMCKENMLGDAKTNTFCGTPDYIAPEILLGQKYNHSVDWWSFGVLLYEMLIGQSPFHGQDEEELFHSIRMDNPFYPRWLEKEAKDLLVKLFVREPEKRLGVRGDIRQHPLFREINWEELERKEIDPPFRPKVKSPFDCSNFDKEFLNEKPRLSFADRALINSMDQNMFRNFSFMNPGMERLIS
binding: no binding
